Assay results published in paper PMC10254030, “Photoactivatable Heptamethine-Based Carbonic Anhydrase Inhibitors Leading to New Anti-Antibacterial Agents” (International Journal of Molecular Sciences, 2023).

Amino acid sequences for entries named in this document (tags omitted).
UniProt Q9I730, entry or part of it: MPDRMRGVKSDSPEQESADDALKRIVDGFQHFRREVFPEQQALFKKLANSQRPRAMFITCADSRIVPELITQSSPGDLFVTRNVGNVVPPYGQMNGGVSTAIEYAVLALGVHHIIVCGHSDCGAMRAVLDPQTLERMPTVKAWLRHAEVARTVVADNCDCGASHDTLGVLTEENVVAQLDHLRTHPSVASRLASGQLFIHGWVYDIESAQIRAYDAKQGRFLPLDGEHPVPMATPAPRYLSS

Biological target: PsCA1 (Pseudomonas aeruginosa, UniProt Q9I730)
Assay: biochemical
Conditions: stopped-flow CO2 hydrase assay, mean from 3 assays
Procedure: The CA isoforms belong to different classes of CA enzymes characterized by different kinetic and structural features to assess isoform selectivity.
An Applied Photophysics stopped-flow instrument was used to assay CA-catalyzed CO2 hydration activity. […] The uncatalyzed rates were determined in the same manner and subtracted from the total observed rates. Stock solutions of the inhibitor (0.1 mM) were prepared in distilled–deionized water, and dilutions up to 0.01 nM were done thereafter with the assay buffer. Inhibitor and enzyme solutions were preincubated together for 15 min at room temperature prior to the assay to allow for the formation of the E–I complex. The inhibition constants were obtained by non-linear least-squares methods using PRISM 3 and the Cheng–Prusoff equation as reported earlier and represent the mean from at least three different determinations. All CA isoforms were recombinant proteins obtained in house, as reported earlier.

For `CC(=O)Nc1nnc(S(N)(=O)=O)s1` [AAZ, acetazolamide, reference compound], the Ki was 37 nM.
